PubChem BioAssay AID1508588, Peter MacCallum Cancer Centre | 2020
This is one part, drawn at random, of about 18,000 deposited reagents. 790 of all reagents (4.4%) count as active. 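Calls rest on a combination of fold-change classes in drug and vehicle arms, not all shown here.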 A reagent listed more than once was tested more than once; the source does not tell the runs apart.

Screen: 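Genome-wide search for knock-downs that heighten vemurafenib action in melanoma cells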 (primary screen)
Cells: human WM266.4 melanoma cells (BRAF V600 mutant)
Knock-down reagent: siRNA pool against human genes, 40 nM
Timing: 96 h from transfection to read-out
Treatment: vemurafenib 300 nM (about IC25), added 48 h after transfection, for 48 h; comparison arm got DMSO vehicle only
Measurement: 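Cell gain (DAPI nuclei at end minus before drug, mean of two replicates) and medium lactate by absorbance per cell, both as ratio to non-targeting siRNA, also grouped into fold-change classes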
Reading the numbers: cell gain with vemurafenib: higher = more cell gain than with non-targeting siRNA; lactate per cell with vemurafenib: higher = more lactate made per cell
Active means: 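Enhancement is called by pairing each knock-down's vehicle-arm and drug-arm fold-change classes for viability or glycolysis; which class combinations qualify is not given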
Calls: active = enhances vemurafenib effect; inactive = no enhancement seen

gene | cell gain with vemurafenib | lactate per cell with vemurafenib | outcome
FAM241B | 0.77 | 1 | inactive
DCC | 1.28 | 0.66 | inactive
HPGD | 0.56 | 1.23 | inactive
PCDHGB7 | 0.57 | 0.99 | inactive
EEF1A2 | 1.03 | 0.68 | inactive
PLCB4 | 0.2 | 1.19 | inactive
PLD3 | 0.57 | 2.12 | inactive
ANXA8 | 0.69 | 1.45 | inactive
RNF130 | 1.04 | 0.72 | active
RNF130 | 0.45 | 0.6 | active
PLSCR3 | 0.76 | 0.96 | inactive
SLC4A11 | 0.78 | 0.78 | inactive
OR2C3 | 0.1 | 0.97 | inactive
TTPAL | 0.27 | 1.81 | inactive
KCNC1 | 0.88 | 0.6 | inactive
USP46 | 1.26 | 0.54 | inactive
TAGAP | -0.07 | 0.2 | inactive
POLR2G | 0.21 | 0.82 | inactive
LCE2A | 0.61 | 1.33 | inactive
PVALB | 0.27 | 1.36 | inactive
IL16 | 0.54 | 0.52 | inactive
EPS8L3 | 0.22 | 1.58 | inactive
CFAP157 | 0.83 | 1.42 | inactive
LCE1B | 0.02 | 1.38 | inactive
OR8S1 | 0.56 | 0.63 | inactive
VSIG10 | 1.13 | 0.38 | inactive
POLE3 | 0.13 | 0.12 | active
FUCA2 | 0.57 | 0.86 | inactive
CT45A5 | 0.3 | 1.21 | inactive
RPS11 | -0.1 | 1 | inactive
GATB | 0.96 | 0.81 | inactive
LRRC40 | 0.15 | 0.81 | inactive
SHANK3 | 0.57 | 1.4 | inactive
TEX14 | 0.2 | 1.46 | inactive
TMPRSS13 | 0.59 | 1.15 | inactive
PGA5 | 0.66 | 0.62 | inactive
CENPK | 0.22 | 1.6 | inactive
CD3D | 0.79 | 0.83 | inactive
TXLNG | 1.14 | 0.34 | inactive

13 neighbouring reagents from above, quoted:
gene | cell gain with vemurafenib | lactate per cell with vemurafenib | outcome
EPS8L3 | 0.22 | 1.58 | inactive
CFAP157 | 0.83 | 1.42 | inactive
LCE1B | 0.02 | 1.38 | inactive
OR8S1 | 0.56 | 0.63 | inactive
VSIG10 | 1.13 | 0.38 | inactive
POLE3 | 0.13 | 0.12 | active
FUCA2 | 0.57 | 0.86 | inactive
CT45A5 | 0.3 | 1.21 | inactive
RPS11 | -0.1 | 1 | inactive
GATB | 0.96 | 0.81 | inactive
LRRC40 | 0.15 | 0.81 | inactive
SHANK3 | 0.57 | 1.4 | inactive
TEX14 | 0.2 | 1.46 | inactive

Next reagents:
gene | cell gain with vemurafenib | lactate per cell with vemurafenib | outcome
HCN1 | 0.5 | 0.76 | inactive
TRAPPC4 | 0.49 | 0.64 | inactive
KLHL23 | 0.42 | 1.16 | inactive
ELK4 | 0.63 | 0.77 | inactive
STX5 | 0.88 | 0.84 | inactive
ENOX1 | 0.64 | 1.28 | inactive
CCDC124 | 0.69 | 0.69 | inactive
HID1 | 0.79 | 1.48 | inactive
EIF2AK2 | 0.7 | 0.46 | inactive
OR4C3 | 0.01 | 1.6 | active
SLFN5 | 1.03 | 0.4 | inactive
IGFBP4 | 1.09 | 0.6 | inactive
SERPINB2 | 0.69 | 1.06 | inactive
CTNS | 0.8 | 1.06 | inactive
MTDH | 0.09 | 1.02 | inactive
NSG2 | 0.22 | 0.68 | active
PSMD3 | -0.05 | 2.01 | inactive
C1S | 0.2 | 0.42 | inactive
USP6 | 0.12 | 1.21 | inactive
NAPA | -0.02 | 0.53 | inactive
ENAH | 0.66 | 0.62 | inactive
AP5Z1 | 0.81 | 0.96 | inactive
XKRYP7 | 0.57 | 1.12 | inactive
PTCD3 | 0.61 | 0.61 | inactive
CRIP1 | 0.36 | 0.5 | inactive
TSLP | 0.92 | 0.43 | inactive
ZNF142 | 0.19 | 1.1 | inactive
APOBEC4 | 0.21 | 0.94 | inactive
F7 | 0.26 | 1.69 | inactive
PARP2 | 0.79 | 1.25 | inactive
DNAI7 | 0.6 | 0.84 | inactive
AIRIM | 0.65 | 0.73 | inactive
CATSPER3 | 0.57 | 0.95 | inactive
IGFBP5 | 0.72 | 0.99 | inactive
MED25 | 0.43 | 2.82 | inactive
MFSD2A | 0.89 | 0.49 | active
DEFB108B | 1.28 | 0.49 | inactive
GLRX5 | 0.42 | 1.23 | inactive
EPHX3 | 0.15 | 1.22 | inactive
RECK | 0.88 | 1.07 | inactive
WNK4 | 1.12 | 0.55 | inactive
PATZ1 | 0.79 | 0.61 | inactive
CBX5 | 0.25 | 0.99 | inactive
ANKIB1 | 1.05 | 0.9 | inactive
PLCG1 | 0.61 | 0.88 | inactive
